Reference: article PMC6940936
These are yes or no findings as the source states them, for the method shown. In cells and extracts the contact can be indirect. Some entries that bind do so weakly or less than the wild type.

The chains behind the UniProt entries cited, without tags or fusion partners.
UniProt P46937: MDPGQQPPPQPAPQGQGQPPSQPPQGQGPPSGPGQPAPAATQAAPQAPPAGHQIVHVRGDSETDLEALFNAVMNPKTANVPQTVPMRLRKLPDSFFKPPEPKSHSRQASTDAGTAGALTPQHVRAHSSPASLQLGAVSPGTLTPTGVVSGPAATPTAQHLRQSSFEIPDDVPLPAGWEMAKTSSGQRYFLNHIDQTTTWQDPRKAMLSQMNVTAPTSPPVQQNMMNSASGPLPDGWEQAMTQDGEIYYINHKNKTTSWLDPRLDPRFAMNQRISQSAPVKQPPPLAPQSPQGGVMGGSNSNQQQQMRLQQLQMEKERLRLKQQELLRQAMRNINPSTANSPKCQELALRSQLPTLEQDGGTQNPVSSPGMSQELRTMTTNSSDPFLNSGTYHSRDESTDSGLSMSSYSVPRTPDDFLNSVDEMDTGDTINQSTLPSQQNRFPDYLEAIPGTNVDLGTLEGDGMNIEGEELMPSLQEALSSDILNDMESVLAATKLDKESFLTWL

Legend:
[1] = target: yes-associated protein (human (endogenous in HaCaT and primary foreskin keratinocytes)) (UniProt P46937); experiment: co-IP; lysate of primary foreskin keratinocytes; IP with anti-pYAP or anti-YAP antibody and protein-G Dynabeads; controls rabbit IgG alone and input; Western blot
[2] = target: phospho-YAP-S127 (human (endogenous in HaCaT and primary foreskin keratinocytes)) (UniProt P46937); experiment: as above

binding [1]: binds | binding [2]: binds
B1: Plakophilin 1 (protein, UniProt Q13835 1-747)
chain: MNHSPLKTALAYECFQDQDNSTLALPSDQKMKTGTSGRQRVQEQVMMTVKRQKSKSSQSSTLSHSNRGSMYDGLADNYNYGTTSRSSYYSKFQAGNGSWGYPIYNGTLKREPDNRRFSSYSQMENWSRHYPRGSCNTTGAGSDICFMQKIKASRSEPDLYCDPRGTLRKGTLGSKGQKTTQNRYSFYSTCSGQKAIKKCPVRPPSCASKQDPVYIPPISCNKDLSFGHSRASSKICSEDIECSGLTIPKAVQYLSSQDEKYQAIGAYYIQHTCFQDESAKQQVYQLGGICKLVDLLRSPNQNVQQAAAGALRNLVFRSTTNKLETRRQNGIREAVSLLRRTGNAEIQKQLTGLLWNLSSTDELKEELIADALPVLADRVIIPFSGWCDGNSNMSREVVDPEVFFNATGCLRKRLGMRELLALVPQRATSSRVNLSSADAGRQTMRNYSGLIDSLMAYVQNCVAASRCDDKSVENCMCVLHNLSYRLDAEVPTRYRQLEYNARNAYTEKSSTGCFSNKSDKMMNNNYDCPLPEEETNPKGSGWLYHSDAIRTYLNLMGKSKKDATLEACAGALQNLTASKGLMSSGMSQLIGLKEKGLPQIARLLQSGNSDVVRSGASLLSNMSRHPLLHRVMGNQVFPEVTRLLTSHTGNTSNSEDILSSACYTVRNLMASQPQLAKQYFSSSMLNNIINLCRSSASPKAAEAARLLLSDMWSSKELQGVLRQQGFDRNMLGTLAGANSLRNFTSRF
